Source: patent US6472178
No constants are given. Whether binding was seen depends on the method and setting. Some results given as binding are weak or reduced against the parent protein; the word gives no strength.

How the values were obtained:
[1] = biological target: T1, rat CNTF receptor on rat superior cervical ganglia (SCG) neurons (rat) (UniProt Q08406); test: competition with 125I-rat CNTF on rat SCG neurons
T1 sequence (looked up): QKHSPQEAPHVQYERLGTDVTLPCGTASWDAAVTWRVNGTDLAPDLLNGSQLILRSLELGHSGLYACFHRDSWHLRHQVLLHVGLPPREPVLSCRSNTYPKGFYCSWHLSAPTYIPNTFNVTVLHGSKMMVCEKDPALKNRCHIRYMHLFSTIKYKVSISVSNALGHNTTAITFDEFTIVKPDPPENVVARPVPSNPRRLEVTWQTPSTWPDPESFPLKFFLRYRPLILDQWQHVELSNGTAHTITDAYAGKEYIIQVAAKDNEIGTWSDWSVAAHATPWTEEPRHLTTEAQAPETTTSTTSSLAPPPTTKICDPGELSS

[2] = biological target: T2, human CNTF receptor α-component on MG87/CNTFR fibroblasts (human) (UniProt P26992); test: competition with 125I-rat CNTF on MG87/CNTFR cells
T2 sequence (looked up): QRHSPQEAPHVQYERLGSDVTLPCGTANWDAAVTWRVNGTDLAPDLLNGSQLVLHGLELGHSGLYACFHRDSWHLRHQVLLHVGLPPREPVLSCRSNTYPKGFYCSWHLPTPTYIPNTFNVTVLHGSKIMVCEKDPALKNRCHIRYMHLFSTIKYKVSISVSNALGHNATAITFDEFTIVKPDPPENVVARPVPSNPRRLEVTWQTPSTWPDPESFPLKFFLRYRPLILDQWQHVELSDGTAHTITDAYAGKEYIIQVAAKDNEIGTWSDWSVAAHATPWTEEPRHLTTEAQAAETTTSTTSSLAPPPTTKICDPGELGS

Row | Binder | binding [1] | binding [2]
1 | recombinant rat CNTF (ciliary neurotrophic factor) (ligand, also called unlabelled rat CNTF) MAFAEQTPLTLHRRDLCSRSIWLARKIRSDLTALMESYVKHQGLNKNINLDSVDGVPVASTDRWSEMTEAELRQENLQAYRTFQGMLTKLLEDQRVHFTPTEGDFHQAIHTLMLQVSAFAYQLEELMVLLEQKIPENEADGMPATVGDGGLFEKKLWGLKVLQELSQWTVRSIHDLRVISSHQMGISALESHYGAKDKQM | binds | binds
2 | recombinant human CNTF (ciliary neurotrophic factor) (ligand) MAFTEHSPLTPHRRDLCSRSIWLARKIRSDLTALTESYVKHQGLNKNINLDSADGMPVASTDQWSELTEAERLQENLQAYRTFHVLLARLLEDQQVHFTPTEGDFHQAIHTLLLQVAAFAYQIEELMILLEYKIPRNEADGMPINVGDGGLFEKKLWGLKVLQELSQWTVRSIHDLRFISSHQTGIPARGSHYIANNKKM | binds | 
